Source: US7528224B1, “Peptide for triggering an immune reaction against tumor cells” (Immatics Biotechnologies GmbH, priority 1999, dated 2009)
Part of at least one peptide drawing is inferred or uncertain, most often the ends. Ends that are not written are not given here.

How the values were obtained:
Format in all cases: cell-based, human
[1] = system: Caki-2 (kidney cell carcinoma cells); assay: 51Cr release lysis of tumor cells by MUC-1 peptide specific cytotoxic T cells; conditions: cells do not express HLA-A2
[2] = system: A-498 (kidney cell carcinoma cells); assay: as above; conditions: cells express HLA-A2 and MUC-1
[3] = system: MZ1774-RCC (kidney cell carcinoma cells); assay: as above
[4] = system: Croft (EBV immortalized B cells); assay: 51Cr release lysis of cells by MUC-1 peptide specific cytotoxic T cells; conditions: cells do not express MUC-1
[5] = system: K562 (pro-erythroblastic cells); assay: as above; conditions: cells do not express HLA-A2
[6] = system: MCF-7 (breast cancer cells); assay: 51Cr release lysis of tumor cells by MUC-1 peptide specific cytotoxic T cells; conditions: cells express HLA-A2 and MUC-1
[7] = system: SK-OV-3 (ovary cancer cells); assay: as above; conditions: cells do not express HLA-A2

In the case of LLLLTVLTV [SEQ ID NO: 2], the “lysis of Caki-2 cells by T cells activated with the peptide” value [1] was “not able to lyse”, the “lysis of A-498 cells by T cells activated with the peptide” value [2] was “able to lyse” and the “lysis of MZ1774-RCC cells by T cells activated with the peptide” value ([3]; cells express HLA-A2 and MUC-1) was “able to lyse”. The “lysis of MZ1774-RCC cells pre-incubated with anti-HLA-A2 antibody by T cells activated with the peptide” value ([3]; target cells incubated before with 10 μg/ml monoclonal antibody BB7.2 against HLA-A2 for 30 minutes) was “could neither lyse”, the “lysis of Croft cells by T cells activated with the peptide” value [4] was “not able to lyse” and the “lysis of K562 cells by T cells activated with the peptide” value [5] was “not able to lyse”. For the same sequence, the “lysis of MCF-7 cells by T cells activated with the peptide” value [6] was “able to lyse” and the “lysis of SK-OV-3 cells by T cells activated with the peptide” value [7] was “not able to lyse”.
